Measured values from PubChem BioAssay AID662 (National Center for Advancing Translational Sciences (NCATS), 2007).
The other results are listed elsewhere or left out. These are further read-outs of the screen, such as a control signal, another cell line or another target. No call is given for them. Most of these compounds were active or inconclusive in the main read-out, so they are no random draw. The note in brackets gives the kind of curve behind each potency; many fits are weak.

assay: Cell signaling CRE-BLA (Fsk stim); conditions: CHO CRE-bla reporter (cAMP response element driving beta-lactamase), forskolin EC10, beta-lactamase ratio; measured here: 460 nm blue channel
How it was run: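 CRE-bla CHO cells stimulated with EC10 NKH 477 (water-soluble forskolin) and compound titrations, 3 h at 37C; beta-lactamase read with CCF4 after 2 h at room temperature. Activity from 460/530 nm emission ratio, AC50 values for positive or negative modulation.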

| SMILES | AC50 |
| --- | --- |
| CCOC(=O)c1ccccc1NC(=O)CSc1ncc(C(=O)OCC)c(N)n1 | 3.98 µM [rising, single point] |
| CC1CCCC(C)N1C(=O)COc1ccc(-c2nnco2)cc1 (centres undefined) | 3.98 µM [falling, partial curve] |
| Cc1nc2cc3nc(C)sc3cc2s1 | 12.6 µM [rising, single point] |
| CCOC(=O)c1c(-c2cccs2)csc1NC(=O)COC(=O)c1c(C)noc1C | 3.98 µM [rising, full curve] |
| Fc1ccc(-c2cc3nc(-c4ccccc4)cc(N4CCN(CCN5CCOCC5)CC4)n3n2)cc1 | 10 µM [rising, partial curve] |
| CCOc1ccc(CN2CCC(=O)NC2=O)cc1 | 1 µM [falling, full curve] |
| Cc1cccc(NC(=O)Cn2cnc3sc(C)c(S(=O)(=O)N4CCC(C)CC4)c3c2=O)n1 | 0.316 µM [falling, full curve, poor fit] |
| Clc1ccccc1-c1nc(-n2ccnc2)c2ccccc2n1 | 7.94 µM [rising, partial curve] |
| CCOc1c(OC)cccc1C1CC(=O)Nc2cc(OC)c(OC)cc21 (centres undefined) | 15.8 µM [rising, partial curve] |
| Cc1cc(C)nc(N2CCCC(C(=O)Nc3nc4ccc(S(C)(=O)=O)cc4s3)C2)n1 (centres undefined) | 12.6 µM [rising, single point] |
| Cc1ccccc1NS(=O)(=O)c1ccc(NC(=O)c2ccco2)cc1 | 12.6 µM [rising, single point] |
| CCOC(=O)c1[nH]c2ccc(OCC)cc2c1NC(=O)CN1CCC2(CC1)OCCO2 | 12.6 µM [rising, partial curve] |
| CN(C)c1ncc2nc(-c3ccc(F)cc3)c(=O)n(C)c2n1 | 3.16 µM [rising, partial curve] |
| COc1ccc(CC(=O)OCc2cc3ccc(C)cc3[nH]c2=O)cc1 | 2.51 µM [falling, full curve] |
| N#Cc1c(-c2ccco2)cc(-c2ccc(F)cc2)nc1N | 12.6 µM [rising, single point] |
| CC(C)C[C@H](N)c1nnc(S(=O)(=O)Cc2ccc(F)cc2)o1 | 6.31 µM [falling, full curve] |
| CC1CCN(c2oc(Cc3cccc4ccccc34)nc2C#N)CC1 | 5.01 µM [rising, partial curve] |
| N#Cc1nc(-c2ccccc2Cl)oc1NCc1ccco1 | 15.8 µM [rising, single point] |
| COc1ccc(-c2nc3cnc(Nc4ccccc4)nc3n(Cc3cccs3)c2=O)cc1 | 12.6 µM [rising, partial curve] |

Two of these compounds in another layout.
SMILES	AC50
COc1ccc(CC(=O)OCc2cc3ccc(C)cc3[nH]c2=O)cc1	2.51 µM [falling, full curve]
N#Cc1c(-c2ccco2)cc(-c2ccc(F)cc2)nc1N	12.6 µM [rising, single point]
